The results in this text go back to patent US20200190592A1, “PME-1 AS A BIOMARKER TO PREDICT AND DIAGNOSE AN INCREASED RISK OF ENDOMETRIAL CANCER AND GENE SILENCING OF PME-1 TO INHIBIT EPITHELIAL TO MESENCHYMAL TRANSITION” (Medical Diagnostic Laboratories, L.L.C., priority 2018, published 2020).

Amino acid sequences for entries named in this document (tags omitted).
UniProt P62714: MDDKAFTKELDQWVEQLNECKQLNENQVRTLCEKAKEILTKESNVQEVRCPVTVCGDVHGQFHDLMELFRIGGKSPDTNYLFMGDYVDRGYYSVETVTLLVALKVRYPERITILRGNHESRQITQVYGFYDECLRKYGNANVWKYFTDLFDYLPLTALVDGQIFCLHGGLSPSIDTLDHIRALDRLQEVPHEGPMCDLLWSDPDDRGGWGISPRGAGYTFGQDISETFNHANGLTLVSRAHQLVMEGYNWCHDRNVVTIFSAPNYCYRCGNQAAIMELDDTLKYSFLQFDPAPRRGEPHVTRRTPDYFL

No constants are given. Whether binding was seen depends on the method and setting. In cells and extracts the contact can be indirect. Some results given as binding are weak or reduced against the parent protein; the word gives no strength. Sequences can lack the tags named with a protein.

In experiment [1] the target is T1, Endogenous Ppp4c, the catalytic subunit of PP4 (human) (UniProt P60510).
T1 sequence (looked up): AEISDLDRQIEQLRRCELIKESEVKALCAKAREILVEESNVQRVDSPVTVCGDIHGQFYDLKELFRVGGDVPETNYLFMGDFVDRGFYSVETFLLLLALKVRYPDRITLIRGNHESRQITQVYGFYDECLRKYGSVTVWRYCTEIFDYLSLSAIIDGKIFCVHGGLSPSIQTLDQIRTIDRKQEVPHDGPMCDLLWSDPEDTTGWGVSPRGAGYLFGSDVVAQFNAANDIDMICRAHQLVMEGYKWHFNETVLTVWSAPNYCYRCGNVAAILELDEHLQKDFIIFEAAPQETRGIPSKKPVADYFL
In words: FLAG co-immunoprecipitation from ECC-1 lysate, western blot. In general terms: A western blot detects proteins with antibodies after separation by electrophoresis.

The target of experiment [2] is Ppp2cb, the beta isoform of the catalytic subunit of PP2A (human) (UniProt P62714). In words: FLAG co-immunoprecipitation from ECC-1 lysate, western blot (data not shown).
Experiment [3] addresses T1, Endogenous Ppp4c, the catalytic subunit of PP4 (human). As to the kind of experiment: FLAG co-immunoprecipitation from ECC-1 lysate, western blot (summary of the example).
The target is the same in experiment [4]. As to the kind of experiment: FLAG co-immunoprecipitation from ECC-1 lysate, western blot with anti-Ppp4c.
In a further experiment the target is T2, FLAG-Ppp4c (UniProt P60510).
T2 sequence (looked up): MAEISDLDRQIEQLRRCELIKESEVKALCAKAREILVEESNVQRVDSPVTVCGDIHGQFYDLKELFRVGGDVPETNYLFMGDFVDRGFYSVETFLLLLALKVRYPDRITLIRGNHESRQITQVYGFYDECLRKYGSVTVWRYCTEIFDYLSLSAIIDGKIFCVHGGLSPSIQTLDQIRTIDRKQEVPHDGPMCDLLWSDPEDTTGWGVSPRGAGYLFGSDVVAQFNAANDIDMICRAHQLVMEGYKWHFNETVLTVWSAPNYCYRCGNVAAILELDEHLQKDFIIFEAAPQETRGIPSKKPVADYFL
As to the kind of experiment: FLAG co-immunoprecipitation from co-transfected HEK293T cells, western blot with anti-V5.

B1: FLAG-tagged PME-1 (over-expression of wild-type PME-1) (enzyme, human, UniProt Q9Y570 1-386, looked up, not shown: small tags and cut ends)
chain: MSALEKSMHLGRLPSRPPLPGSGGSQSGAKMRMGPGRKRDFSPVPWSQYFESMEDVEVENETGKDTFRVYKSGSEGPVLLLLHGGGHSALSWAVFTAAIISRVQCRIVALDLRSHGETKVKNPEDLSAETMAKDVGNVVEAMYGDLPPPIMLIGHSMGGAIAVHTASSNLVPSLLGLCMIDVVEGTAMDALNSMQNFLRGRPKTFKSLENAIEWSVKSGQIRNLESARVSMVGQVKQCEGITSPEGSKSIVEGIIEEEEEDEEGSESISKRKKEDDMETKKDHPYTWRIELAKTEKYWDGWFRGLSNLFLSCPIPKLLLLAGVDRLDKDLTIGQMQGKFQMQVLPQCGHAVHEDAPDKVAEAVATFLIRHRFAEPIGGFQCVFPGC
B1: the binding result in experiment [1], in experiment [2], in experiment [3] and in experiment [4] was “binds” in each case.

B2: V5-PME-1 (enzyme, human, UniProt Q9Y570 1-386, looked up, not shown: small tags and cut ends)
chain: MSALEKSMHLGRLPSRPPLPGSGGSQSGAKMRMGPGRKRDFSPVPWSQYFESMEDVEVENETGKDTFRVYKSGSEGPVLLLLHGGGHSALSWAVFTAAIISRVQCRIVALDLRSHGETKVKNPEDLSAETMAKDVGNVVEAMYGDLPPPIMLIGHSMGGAIAVHTASSNLVPSLLGLCMIDVVEGTAMDALNSMQNFLRGRPKTFKSLENAIEWSVKSGQIRNLESARVSMVGQVKQCEGITSPEGSKSIVEGIIEEEEEDEEGSESISKRKKEDDMETKKDHPYTWRIELAKTEKYWDGWFRGLSNLFLSCPIPKLLLLAGVDRLDKDLTIGQMQGKFQMQVLPQCGHAVHEDAPDKVAEAVATFLIRHRFAEPIGGFQCVFPGC
On to B2, for which the binding result in the experiment with FLAG-Ppp4c was “binds”.

B3: V5-PME-1 S156A (enzyme, human, UniProt Q9Y570 1-386, looked up, not shown: small tags and cut ends)
chain: MSALEKSMHLGRLPSRPPLPGSGGSQSGAKMRMGPGRKRDFSPVPWSQYFESMEDVEVENETGKDTFRVYKSGSEGPVLLLLHGGGHSALSWAVFTAAIISRVQCRIVALDLRSHGETKVKNPEDLSAETMAKDVGNVVEAMYGDLPPPIMLIGHAMGGAIAVHTASSNLVPSLLGLCMIDVVEGTAMDALNSMQNFLRGRPKTFKSLENAIEWSVKSGQIRNLESARVSMVGQVKQCEGITSPEGSKSIVEGIIEEEEEDEEGSESISKRKKEDDMETKKDHPYTWRIELAKTEKYWDGWFRGLSNLFLSCPIPKLLLLAGVDRLDKDLTIGQMQGKFQMQVLPQCGHAVHEDAPDKVAEAVATFLIRHRFAEPIGGFQCVFPGC
With B3, in the experiment with FLAG-Ppp4c, the binding entry is on record as “binds”.

B4: FLAG-tagged PME-1 S156A (catalytically inactive mutant) (enzyme, human, UniProt Q9Y570 1-386, looked up, not shown: small tags and cut ends)
chain: MSALEKSMHLGRLPSRPPLPGSGGSQSGAKMRMGPGRKRDFSPVPWSQYFESMEDVEVENETGKDTFRVYKSGSEGPVLLLLHGGGHSALSWAVFTAAIISRVQCRIVALDLRSHGETKVKNPEDLSAETMAKDVGNVVEAMYGDLPPPIMLIGHAMGGAIAVHTASSNLVPSLLGLCMIDVVEGTAMDALNSMQNFLRGRPKTFKSLENAIEWSVKSGQIRNLESARVSMVGQVKQCEGITSPEGSKSIVEGIIEEEEEDEEGSESISKRKKEDDMETKKDHPYTWRIELAKTEKYWDGWFRGLSNLFLSCPIPKLLLLAGVDRLDKDLTIGQMQGKFQMQVLPQCGHAVHEDAPDKVAEAVATFLIRHRFAEPIGGFQCVFPGC
Regarding B4, the binding result in experiment [1] is given as “binds”.
